# Data source: PubChem BioAssay AID743454 (Peter MacCallum Cancer Centre, 2014)
# Purpose: 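Knock-downs lowering viability or raising caspase 3/7 activity in vorinostat-treated resistant cells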 (primary screen)
# System: human HCT116-VR colon cancer cells, selected for vorinostat resistance
# Knock-down reagent: siRNA pool against human genes, 40 nM siRNA pool
# Timing: vorinostat for 24 h, read-out about 72 h after transfection
# Conditions: vorinostat at 2.5 µM final
# Detection: 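Two measures, CellTiter-Fluor viability and luminescent caspase 3/7 activity, each as fold change against same-plate mock wells, mean of duplicates, then screen-wide robust z-score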
# Direction: viability robust z-score: higher = more viable cells than screen typical; caspase robust z-score: higher = more caspase 3/7 activity than screen typical
# Active means: 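Hits are knock-downs in viability class RV1/RV2 or caspase class CA1/CA2, excluding ones that killed cells in the no-drug cell-count arm; hits then retested with single siRNAs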
# Here is one part, drawn at random, of about 18,000 reagents tested. 450 of all reagents (2.5%) were called active. 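Single biological run; no consistent viability z cut-off exists, so the class columns, not z-scores, define the calls.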
target,viability hit class,caspase hit class,viability robust z-score,caspase robust z-score,Call
GAR1 (GAR1 ribonucleoprotein),no change,no change,-1.52,-0.44,inactive
SLITRK5 (SLIT and NTRK like family member 5),no change,no change,1.07,-0.89,inactive
ACADM (acyl-CoA dehydrogenase medium chain),no change,no change,-0.34,-0.78,inactive
CRTAC1 (cartilage acidic protein 1),no change,no change,0.57,-0.43,inactive
LRRC45 (leucine rich repeat containing 45),no change,no change,-2.3,-0.48,inactive
EFEMP1 (EGF-like fibulin extracellular matrix protein 1),no change,no change,0.43,-0.92,inactive
UQCRC2 (ubiquinol-cytochrome c reductase core protein 2),no change,no change,0.7,-1,inactive
FNBP1L (formin binding protein 1 like),no change,no change,-1.13,-1.17,inactive
CNGA2 (cyclic nucleotide gated channel subunit alpha 2),no change,no change,1.5,-0.62,inactive
CNMD (chondromodulin),no change,no change,0.61,1.19,inactive
"PIM1 (Pim-1 proto-oncogene, serine/threonine kinase)",no change,no change,1.23,-0.32,inactive
TMEM9 (transmembrane protein 9),no change,no change,0.28,1.39,inactive
ELF1 (E74 like ETS transcription factor 1),no change,no change,-0.34,-0.46,inactive
GLI3 (GLI family zinc finger 3),no change,no change,-0.54,0.5,inactive
FOXH1 (forkhead box H1),no change,no change,-0.64,3.19,inactive
EEF1G (eukaryotic translation elongation factor 1 gamma),no change,no change,0.16,0.62,inactive
NPPC (natriuretic peptide C),no change,no change,-0.4,-0.77,inactive
NOS3 (nitric oxide synthase 3),no change,no change,-1.46,-0.2,inactive
KCNK5 (potassium two pore domain channel subfamily K member 5),no change,no change,0.88,0.75,inactive
UNC13D (unc-13 homolog D),no change,no change,-0.59,-0.73,inactive
ZNF219 (zinc finger protein 219),no change,no change,1.45,0.74,inactive
EXT2 (exostosin glycosyltransferase 2),no change,no change,-0.17,0.76,inactive
ASAH1 (N-acylsphingosine amidohydrolase 1),no change,no change,-1.3,0.94,inactive
DDTL (D-dopachrome tautomerase like),no change,no change,0.13,-0.02,inactive
MYO7A (myosin VIIA),no change,no change,-0.32,2,inactive
BAG6 (BAG cochaperone 6),no change,no change,-0.62,0.1,inactive
RPP38-DT (RPP38 divergent transcript),no change,no change,-1.4,-1.24,inactive
TM9SF1 (transmembrane 9 superfamily member 1),no change,no change,0.08,0.71,inactive
CITED4 (Cbp/p300 interacting transactivator with ED-rich tail 4),no change,no change,0.78,-0.02,inactive
CLDN4 (claudin 4),no change,no change,0.14,0.26,inactive
ZNF35 (zinc finger protein 35),no change,no change,0.64,0.65,inactive
SPINK7 (serine peptidase inhibitor Kazal type 7),no change,no change,0.22,1.98,inactive
ALB (albumin),no change,no change,-0.11,1.7,inactive
PRRT3 (proline rich transmembrane protein 3),no change,CA1 (caspase activation),-0.3,8.29,active
GARIN2 (golgi associated RAB2 interactor family member 2),no change,no change,0.31,0.48,inactive
SFTA2 (surfactant associated 2),no change,no change,-0.4,-0.66,inactive
CACNG1 (calcium voltage-gated channel auxiliary subunit gamma 1),no change,no change,0.21,0.48,inactive
PDIA5 (protein disulfide isomerase family A member 5),no change,no change,-1.18,-0.04,inactive
SSH1 (slingshot protein phosphatase 1),no change,no change,1.49,-0.58,inactive
IFNE (interferon epsilon),no change,no change,-3.48,-0.2,inactive
IKZF1 (IKAROS family zinc finger 1),no change,no change,0.59,-0.4,inactive
ASB6 (ankyrin repeat and SOCS box containing 6),no change,no change,1.12,-0.19,inactive
UBP1 (upstream binding protein 1),no change,no change,-0.74,1.25,inactive
TSHB (thyroid stimulating hormone subunit beta),no change,no change,0.98,-0.98,inactive
"PCDHGB1 (protocadherin gamma subfamily B, 1)",no change,no change,1.94,-0.89,inactive
PSD2 (pleckstrin and Sec7 domain containing 2),no change,no change,0.94,-0.14,inactive
SMARCC2 (SWI/SNF related BAF chromatin remodeling complex subunit C2),no change,no change,1.14,-0.34,inactive
MYO5A (myosin VA),no change,no change,1.15,0.53,inactive
FKBPL (FKBP prolyl isomerase like),no change,no change,1.33,-0.34,inactive
CYP2F1 (cytochrome P450 family 2 subfamily F member 1),no change,no change,-0.64,-0.52,inactive
LGR4 (leucine rich repeat containing G protein-coupled receptor 4),no change,no change,-0.86,-0.2,inactive
VGF (VGF nerve growth factor inducible),no change,no change,-0.14,-0.18,inactive
SYNGR2 (synaptogyrin 2),no change,no change,-0.48,0.2,inactive
SSH2 (slingshot protein phosphatase 2),no change,no change,-0.07,0.2,inactive
SKAP2 (src kinase associated phosphoprotein 2),no change,no change,-0.22,0.02,inactive
CST7 (cystatin F),no change,no change,-0.12,0.02,inactive
SSPN (sarcospan),no change,no change,-1.42,3.83,inactive

In a second layout: entries from further up
| target | viability hit class | caspase hit class | viability robust z-score | caspase robust z-score | Call |
| --- | --- | --- | --- | --- | --- |
| SFTA2 (surfactant associated 2) | no change | no change | -0.4 | -0.66 | inactive |
| CACNG1 (calcium voltage-gated channel auxiliary subunit gamma 1) | no change | no change | 0.21 | 0.48 | inactive |
| PDIA5 (protein disulfide isomerase family A member 5) | no change | no change | -1.18 | -0.04 | inactive |
| SSH1 (slingshot protein phosphatase 1) | no change | no change | 1.49 | -0.58 | inactive |
